Measurements reported in PubChem BioAssay AID504793 (Drosophila RNAi Screening Center, 2011)

- Test: 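Knock-downs allowing continued mitosis even though DNA is damaged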 (primary screen)
- Cells: Drosophila S2R+ cells
- Reagent: long dsRNA against Drosophila genes, about 0.25 µg dsRNA per well
- Duration: 4 days of dsRNA, then 4 hours of drug before read-out
- Challenge: doxorubicin 0.5 µM for 4 hours to cause double-strand breaks, in cells also given a low, harmless dose of dsRNA against nbs to sensitise the assay
- Measurement: 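Per-well count of mitotic cells stained for phospho-histone H3 after doxorubicin exposure, used as mitotic index; counts are raw and not normalised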
- Reading the numbers: mitotic cells: higher = more cells in mitosis, weaker G2 arrest
- Rule for the call: 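Genes are called active only when high mitotic counts were reproduced with independent dsRNAs and mitosis was checked for delay without damage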
- Meaning of the calls: active = confirmed in follow-up tests; inactive = not confirmed
In all, the deposit lists about 23,000 reagents; below is an unselected part of those with a known target gene and a result. In the full data, 62 (0.27%) got an active call. 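Calls come from follow-up tests whose scores are not deposited, so confirmed genes may have low counts here; counts are not normalised per plate.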 Raw values are not corrected between plates. A plus sign joins genes that one reagent is predicted to hit. No sequences are given here.

Depletion of ND-49L (NADH dehydrogenase (ubiquinone) 49 kDa subunit-like) [DRSC14437] resulted in: mitotic cells, replicate 1 = 13; inactive.
With knock-down of ND-49L (NADH dehydrogenase (ubiquinone) 49 kDa subunit-like) [DRSC27894], the screen gave mitotic cells, replicate 1 = 12; inactive.
Knock-down of mRpL30 (mitochondrial ribosomal protein L30) [DRSC18416] came out at: mitotic cells, replicate 1 = 11; inactive.
After knock-down of mRpL30 (mitochondrial ribosomal protein L30) [DRSC26623], the record shows mitotic cells, replicate 1 = 3; inactive.
For Sgf29 (SAGA-associated factor 29kDa) [DRSC04076] the deposit lists mitotic cells, replicate 1 = 13; inactive.
For ACOX1 (acyl-CoA oxidase 1) [DRSC05941] the deposit lists mitotic cells, replicate 1 = 10; inactive.
Knock-down of ACOX1 (acyl-CoA oxidase 1) [DRSC24604] came out at: mitotic cells, replicate 1 = 5; inactive.
Silencing of CG5446 [DRSC02862] came out at: mitotic cells, replicate 1 = 4; inactive.
With knock-down of AOX3 (Aldehyde oxidase 3) [DRSC15955], the record shows mitotic cells, replicate 1 = 7; inactive.
After knock-down of CG13627 [DRSC14629], the screen gave mitotic cells, replicate 1 = 11; inactive.
With knock-down of CG12531 [DRSC19466] the results were mitotic cells, replicate 1 = 3; inactive.
For CG12531 [DRSC27679], the values are mitotic cells, replicate 1 = 9; inactive.
Depletion of CG13871 [DRSC06430] resulted in: mitotic cells, replicate 1 = 3; inactive.
With knock-down of CG13871 [DRSC27979], the screen gave mitotic cells, replicate 1 = 8; inactive.
After knock-down of Stacl + CG8179 (retired record) [DRSC23019], the record shows mitotic cells, replicate 1 = 5; inactive.
After knock-down of Stacl + CG8179 (retired record) [DRSC25838] the results were mitotic cells, replicate 1 = 5; inactive.
LRR (Leucine-rich repeat) [DRSC06444] scored mitotic cells, replicate 1 = 4; inactive.
With knock-down of LRR (Leucine-rich repeat) [DRSC24790], the screen gave mitotic cells, replicate 1 = 9; inactive.
CG13760 [DRSC18617] gave mitotic cells, replicate 1 = 3; inactive.
Depletion of CG6763 [DRSC16110] gave: mitotic cells, replicate 1 = 6; inactive.
With knock-down of CG6763 [DRSC24299] the results were mitotic cells, replicate 1 = 4; inactive.
For slmo + CG34179 [DRSC03143], the entry reads mitotic cells, replicate 1 = 4; inactive.
Against Lmx1a (LIM homeobox transcription factor 1 alpha) [DRSC09726] the deposit lists mitotic cells, replicate 1 = 4; inactive.
After knock-down of Lmx1a (LIM homeobox transcription factor 1 alpha) [DRSC26224] the results were mitotic cells, replicate 1 = 6; inactive.
Depletion of GstE4 (Glutathione S transferase E4) [DRSC06674] came out at: mitotic cells, replicate 1 = 9; inactive.
GstE4 (Glutathione S transferase E4) [DRSC24213] scored mitotic cells, replicate 1 = 6; inactive.
Knock-down of CG9630 [DRSC16527] came out at: mitotic cells, replicate 1 = 7; inactive.
With knock-down of CG18336 [DRSC06334] the results were mitotic cells, replicate 1 = 2; inactive.
Depletion of Sdhaf3 (Succinate dehydrogenase assembly factor 3) [DRSC15020] gave: mitotic cells, replicate 1 = 8; inactive.
With knock-down of CG30345 [DRSC05144] the results were mitotic cells, replicate 1 = 2; inactive.
Silencing of Ibf2 (Insulator binding factor 2) [DRSC16551] came out at: mitotic cells, replicate 1 = 7; inactive.
SppL (Signal peptide peptidase-like) [DRSC15228] scored mitotic cells, replicate 1 = 7; inactive.
Dgk (Diacyl glycerol kinase) [DRSC05064] scored mitotic cells, replicate 1 = 12; inactive.
Against Dgk (Diacyl glycerol kinase) [DRSC05065], the values are mitotic cells, replicate 1 = 9; inactive.
Dgk (Diacyl glycerol kinase) [DRSC06171] gave mitotic cells, replicate 1 = 9; inactive.
Dgk (Diacyl glycerol kinase) [DRSC06782] showed mitotic cells, replicate 1 = 16; inactive.
Dgk (Diacyl glycerol kinase) [DRSC25166] showed mitotic cells, replicate 1 = 8; inactive.

Copied from the entries so far for reference:
slmo + CG34179 [DRSC03143] — mitotic cells, replicate 1 = 4; call = inactive
Lmx1a (LIM homeobox transcription factor 1 alpha) [DRSC09726] — mitotic cells, replicate 1 = 4; call = inactive
Lmx1a (LIM homeobox transcription factor 1 alpha) [DRSC26224] — mitotic cells, replicate 1 = 6; call = inactive
GstE4 (Glutathione S transferase E4) [DRSC06674] — mitotic cells, replicate 1 = 9; call = inactive
GstE4 (Glutathione S transferase E4) [DRSC24213] — mitotic cells, replicate 1 = 6; call = inactive
